Among all 340,000 compounds or so, about 6,200 (1.8%) were called active. This list was built around the results that the source calls inconclusive (neither active nor inactive); the mix of calls is not that of the screen. Calls follow the shape of the dose curve; as a rule, active = well fitted activation curve with a large enough effect; inconclusive = small, poorly fitted or top-dose-only effect; inactive = no such curve, though single readings can be large or run the other way. Potencies of inconclusive entries are doubtful fits and often do not repeat.
Assay: A quantitative high throughput screen for small molecules that induce DNA re-replication in SW480 colon adenocarcinoma cells. Also: nearly all actives have a fitted effect of over 55% in size. As to re-replication activation: % of control where 0% means no effect.
Settings: Hoechst DNA content imaging, 48 h; re-replication activation: at 46.1 µM (top of the series) unless noted
Method in brief: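 Treated cells incubate 48 hr (37 C, 5% CO2), are stained 40 min with Hoechst, and nuclear fluorescence is enumerated; a rise in nuclei with high DNA signal marks re-replication.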
For `CCN1CCN(c2cc(C)c3cc(NC(=O)c4cccs4)ccc3n2)CC1`, the Potency was inconclusive: 18.4 µM [activator, single point]. In the case of `OCCN1CN=C(Nc2nc3ccccc3o2)NC1`, the Potency was inconclusive: 0.0046 µM [activator, full curve, poor fit]. In the case of `COc1ccc(C2NC(=S)NC3=C2CCCC3=C2SCCS2)cc1` (configuration not stated), the Potency was inconclusive: 11.6 µM [activator, partial curve, poor fit]. In the case of `CC(C)=CCC/C(C)=C/CNC(=O)C[C@H]1C[C@H](C(=O)N2CCCCC2)[C@@]2(C)c3[nH]c4cc(-c5ccco5)ccc4c3CCN2C1=O`, the Potency was inconclusive: 0.92 µM [activator, partial curve]. In the case of `COc1ccccc1-n1nnnc1S(=O)(=O)Cc1ccc(Cl)cc1`, the Potency was inconclusive: 29.1 µM [activator, single point]. For `COc1ccc(CN(C)C(=O)c2ccc(Oc3ccccc3)cc2)cc1F`, the Potency was inconclusive: 23.1 µM [activator, partial curve, poor fit]. With `O=c1cc(-c2ccccc2)[nH]n1-c1nc2ccccc2[nH]1` the Potency was inconclusive: 31.6 µM [activator, single point]. With `Nc1nnnn1CC(=O)N/N=C/c1cc([N+](=O)[O-])ccc1Cl` the Potency was inconclusive: 29.1 µM [activator, single point]. With `CN(C(=O)COC(=O)c1cc(-c2ccc(Cl)s2)nc2ccccc12)C1CCS(=O)(=O)C1` (configuration not stated) the Potency was inconclusive: 0.116 µM [activator, full curve, poor fit]. For `Cc1ccc(NC(=O)/C=C/c2ccco2)nc1`, the Potency was inconclusive: 0.13 µM [activator, full curve, poor fit]. In the case of `Cc1ccc(C(=O)NCC(=O)NCCSc2ccc(Br)cc2)cc1`, the Potency was “inactive”. For `O=C(CSc1cccc2cccnc12)N/N=C/c1ccncc1`, the Potency was active: 1.84 µM. With `Cc1ccc(S(=O)(=O)N(C)C)cc1-n1c(SCC(=O)Nc2ccc(F)cc2)nc2ccccc2c1=O` the Potency was “inactive”. For `CC1(c2ccc3ccccc3c2)NC(=O)N(CC(=O)N2CCN(c3ccccc3O)CC2)C1=O` (configuration not stated), the Potency was inconclusive: 23.1 µM [activator, single point]. With `COc1ccc(CN(C)C(=O)CSc2nnc(C3CC3)n2C2CC2)cc1` the Potency was “inactive”. With `N#Cc1c(Nc2ccccc2)[n+]([O-])c2ccc(Cl)cc2[n+]1[O-]` the Potency was active: 2.91 µM. For `CCN(c1ccccc1)S(=O)(=O)c1ccc(Cl)c(NC(=O)COC(=O)c2cccc(OC)c2O)c1`, the Potency was inconclusive: 9.2 µM [activator, partial curve, poor fit]. With `COC(=O)C(Cc1ccccc1)NC(=O)CC(C)CC(=O)Nc1ccc(C)cc1` (configuration not stated) the Potency was “inactive”. In the case of `COc1ccc(-c2nc(CS(=O)(=O)CC(=O)NC3CCC(C)CC3)c(C)o2)cc1` (configuration not stated), the Potency was inconclusive: 6.51 µM [activator, partial curve, poor fit]. With `Fc1cccc(-c2n[nH]c(=S)n2-c2ccccc2)c1` the Potency was inconclusive: 6.51 µM [activator, single point]. In the case of `O=C(Nc1ccc(Cl)c(Cl)c1)N1CCCCCC1`, the Potency was inconclusive: 29.1 µM [activator, single point]. For `COc1cc(/C=C(/C#N)C(=O)NCCc2c[nH]c3ccccc23)ccc1OCc1ccccc1F`, the Potency was active: 3.26 µM. With `C[C@H]1CN([C@@H](C)CO)C(=O)c2cc(NS(=O)(=O)c3ccc(Cl)cc3)ccc2O[C@@H]1CN(C)CC1CCCCC1` the re-replication activation was inactive: 27.6% [at 9.22 µM]. With `Cc1cc(C)cc(N2CCCC2=O)c1` the Potency was “inactive”. In the case of `O=C(NCCc1ccccc1)C1CCCN1S(=O)(=O)c1ccc(Cl)cc1` (configuration not stated), the Potency was “inactive”. In the case of `CC(=O)Oc1ccccc1C(=O)Nc1ccccc1C(=O)N1CCCC1`, the Potency was inconclusive: 9.2 µM [activator, single point]. In the case of `Cc1cc(C)n(-c2nc(Nc3ccccc3C(F)(F)F)nc(-n3nc(C)cc3C)n2)n1`, the Potency was inconclusive: 29.1 µM [activator, single point]. For `Cc1ccccc1Nc1nc(N)nc(COC(=O)CCNS(=O)(=O)c2ccccc2)n1`, the Potency was inconclusive: 23.1 µM [activator, partial curve, poor fit]. For `CCOC(=O)N1CCC(NC(=O)c2cc3c(C)nc4ccccc4c3o2)CC1`, the Potency was “inactive”. For `Nc1ncnc2nc(SCC(=O)Nc3ccccc3F)[nH]c12`, the Potency was inconclusive: 6.31 µM [activator, single point]. For `CN(Cc1ccc(F)cc1)C(=O)c1cccc(S(=O)(=O)N2CCN(c3ccc(F)cc3)CC2)c1`, the Potency was inconclusive: 32.6 µM [activator, partial curve, poor fit]. With `COc1cccc(-c2sc3ccccc3c2-c2ccc(OCCN3CCCC3)cc2)c1` the Potency was inconclusive: 29.1 µM [activator, single point]. With `O=[N+]([O-])c1cccc(CN2CCC(Cc3ccccc3)CC2)c1` the Potency was “inactive”. With `O=C(/C=C/c1cccs1)NCc1cccs1` the Potency was inconclusive: 29.1 µM [activator, single point]. In the case of `CC12C(=O)N(c3nccs3)C(=O)C1(C)C1CCC2O1` (configuration not stated), the Potency was inconclusive: 20.6 µM [activator, partial curve, poor fit]. For `COc1ccc(-c2ccc3c(N)c(C(=O)c4ccc(OC)c(OC)c4)sc3n2)cc1`, the Potency was inconclusive: 20.6 µM [activator, partial curve, poor fit]. For `COC(=O)c1c(-c2ccccc2)csc1NC(=O)c1c(-c2ccccc2)noc1C`, the Potency was inconclusive: 14.6 µM [activator, single point]. For `N#C/C(=C/c1ccccc1[N+](=O)[O-])c1nc(C2CC2)cs1`, the Potency was “inactive”. In the case of `O=C(NN=Cc1c(O)ccc2ccccc12)c1ccncc1`, the Potency was “inactive”. In the case of `COc1ccccc1N1CCN(C2CCCN(C(=O)c3ccoc3C)C2)CC1` (configuration not stated), the Potency was inconclusive: 20.6 µM [activator, partial curve, poor fit]. In the case of `CCCN1C(=O)C(NC(C)=O)c2cc(OC)ccc21` (configuration not stated), the Potency was inconclusive: 29.1 µM [activator, single point]. In the case of `Cc1cccc(-c2cc(=O)c(C(=O)O)cn2-c2ccc(F)cc2F)c1`, the Potency was inconclusive: 1.16 µM [activator, single point].
Potency is read from the fitted curve at half-maximal effect.
